Assay results as given in patent US8541400B2, “Compositions forming non-lamellar dispersions” (Camurus AB, priority 2004, dated 2013).
At least one structure is not confirmed: it was looked up by name or label, or the drawing left a doubt.

Assay: Active agent loading into non-lamellar particle dispersion
Assay type: physicochemical
Conditions: active agent relative to mass of total amphiphile, DGMO/GDO/Pluronic F127 54/36/10 dispersion
Experimental: A composition comprising DGMO (54% by weight), GDO (36% by weight) and Pluronic® F127 (10% by weight) was dispersed in 99 times its weight in water by the method of Example 2.1.
The dispersion was divided into samples and loaded with each of the active agents shown below by each of two techniques: • i) A saturated solution of active was equilibrated with the particles in dispersion at 37° C. for three days by gentle stirring on a rotating table. • ii) The samples were dispersed in a solution of excess active agent and heat treated by autoclavation at 125° C. for 20 minutes and were allowed to temperature equilibrate at 37° C. for at least one hour.
The following loadings were achieved, expressed as percentage active agent incorporated relative to the mass of total amphiphile.

CC(C)OC(=O)C(C)(C)Oc1ccc(C(=O)c2ccc(Cl)cc2)cc1 [Fenofibrate]
% loading by equilibration (37° C., three days): 3.3% | % loading by heat treatment (autoclavation 125° C., 20 minutes): 7.12%
